These results are taken from PMC6482195.

No constants are given. Whether binding was seen depends on the method and setting. For some assays here: Binding calls can cover weak binding; strength is not graded here.

Experiment [1] deals with PaPYL4.1 (Phelipanche aegyptiaca). Kind of experiment: two-hybrid; PaPYL4 alleles with complete open reading frames against seven co-receptors, yeast Y190; plates with mock or a range of ABA concentrations (0.1–10 µM); X-Gal staining (Fig. S2).
In experiment [2] the target is PaPYL4.2 (Phelipanche aegyptiaca). Described as above.

B1: ABI2^G168D (enzyme, UniProt O04719 1-423)
chain: MDEVSPAVAVPFRPFTDPHAGLRGYCNGESRVTLPESSCSGDGAMKDSSFEINTRQDSLTSSSSAMAGVDISAGDEINGSDEFDPRSMNQSEKKVLSRTESRSLFEFKCVPLYGVTSICGRRPEMEDSVSTIPRFLQVSSSSLLDGRVTNGFNPHLSAHFFGVYDGHDGSQVANYCRERMHLALTEEIVKEKPEFCDGDTWQEKWKKALFNSFMRVDSEIETVAHAPETVGSTSVVAVVFPTHIFVANCGDSRAVLCRGKTPLALSVDHKPDRDDEAARIEAAGGKVIRWNGARVFGVLAMSRSIGDRYLKPSVIPDPEVTSVRRVKEDDCLILASDGLWDVMTNEEVCDLARKRILLWHKKNAMAGEALLPAEKRGEGKDPAAMSAAEYLSKMALQKGSKDNISVVVVDLKGIRKFKSKSLN
Regarding B1, the values for the binding entry in experiment [1] and in experiment [2] were “binds” and “no binding”, respectively.
